Assay results: PMC7819943, “Rice protein-binding microarrays: a tool to detect cis-acting elements near promoter regions in rice”
The other results are listed elsewhere or left out.

Amino acid sequences for entries named in this document (tags omitted).
UniProt Q0JBA9, entry or part of it: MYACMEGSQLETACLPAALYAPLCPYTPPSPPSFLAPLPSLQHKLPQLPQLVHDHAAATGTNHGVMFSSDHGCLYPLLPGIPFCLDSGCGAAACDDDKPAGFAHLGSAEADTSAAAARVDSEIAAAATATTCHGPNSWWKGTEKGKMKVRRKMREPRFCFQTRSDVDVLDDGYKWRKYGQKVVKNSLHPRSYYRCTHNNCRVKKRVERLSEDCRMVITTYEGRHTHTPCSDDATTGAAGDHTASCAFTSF

The sequences below were run against OsWRKY34 (Oryza sativa, UniProt Q0JBA9 1-250) (assay: protein-binding microarray (RPBM); PBS, 2% BSA, 51.3 ng/ul salmon testes DNA, 50 uM zinc acetate, 200 nM TF, 25 C, 1 h; high values mean tight binding). Conditions: protein: recombinant; tags: N-terminal polyhistidine and DsRed monomer fusion (pET32a); label: CyDye5-dUTP incorporated in the synthesized complementary strand; 3' TTTTT single-stranded linker to array surface; dsDNA, one strand shown.
Outline: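 Using Ni–NTA, transcription factors fused N-terminally to polyhistidine and DsRed were purified after expression in E. coli BL21-CodonPlus. These were incubated at 200 nM with a blocked, double-stranded custom Agilent array for 1 h at 25 °C in a buffer containing 50 µM zinc acetate, and the array was washed. The binding signal is per-feature fluorescence intensity (arbitrary units) on an Axon 4000B scanner.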

Point of comparison: “CATAACATCGCAATTACTCCATCCGTCCCAAAAAAAACTTCGGAGTCACCTAGTGCAG”, binding signal 9250 fluorescence intensity (a.u.). Against it:
- CTTTGGTCCTCACAGCCTCGACAATTATGTTACCGCGATCCGGAGTCACCTAGTGCAG — lower, 8940 fluorescence intensity (a.u.)
- CATCCCAATTTTCTGGCCACACTTGCATCCCTCTGCCGCCCGGAGTCACCTAGTGCAG — higher, 10800 fluorescence intensity (a.u.)
- TTTGTTTTTGGTACATTCATGCCGTCTGCTGCATCTATCACGGAGTCACCTAGTGCAG — higher, 9300 fluorescence intensity (a.u.)
- CCAGCTCCGTTTCTTGTCTTGATTTGGAATCCGGGAAATTCGGAGTCACCTAGTGCAG — lower, 8520 fluorescence intensity (a.u.)
- ATTCATTTTAACACAAAGATTTTCCTCTTGTTCCTTTTTCCGGAGTCACCTAGTGCAG — lower, 8790 fluorescence intensity (a.u.)
- TGGGGCCCACATGGGCTTTTCGGGTGTGTCTTGGTCGTAGCGGAGTCACCTAGTGCAG — higher, 9800 fluorescence intensity (a.u.)
- GCTCCGCTCTCTTCGATCGATCTAGGGTTTGGTCTTCTGTCGGAGTCACCTAGTGCAG — higher, 11600 fluorescence intensity (a.u.)
- TCAGTCTGTACACGCCTACACCAGAGTCCAGTGGTCCTAACGGAGTCACCTAGTGCAG — lower, 8100 fluorescence intensity (a.u.)
- CGTACACGTAATATCCAATTCTGTTCTTGGGCCTCACGAGCGGAGTCACCTAGTGCAG — lower, 8220 fluorescence intensity (a.u.)
- AAGGATATGCGTGCTCACTGTACATATCATTATTTCTCTCCGGAGTCACCTAGTGCAG — lower, 8480 fluorescence intensity (a.u.)
- TGAACCACTCTCGCTCTCGGTCTGTGTCTCTCTTGCCATACGGAGTCACCTAGTGCAG — higher, 10700 fluorescence intensity (a.u.)
- GTGTTTGGTTGGGTAATTTTGCAGGTGTTGCTCGTCAATTCGGAGTCACCTAGTGCAG — higher, 10200 fluorescence intensity (a.u.)
- CTACACTCCTAATCTCTCTCTCTTTCTCGAGTGGAATCCACGGAGTCACCTAGTGCAG — lower, 8970 fluorescence intensity (a.u.)
- GATTGTTGGTTTGCTTCCCTTTGCATGTTTATAACCCCATCGGAGTCACCTAGTGCAG — higher, 10300 fluorescence intensity (a.u.)
- TGCACTAGTAGGATCATTATTTTCCCTTTTTTTTTCTTTTCGGAGTCACCTAGTGCAG — higher, 11300 fluorescence intensity (a.u.)
- CACCGTCCAACCCCGCGCGCCGTTCGCCCGTCCGCTGCCGCGGAGTCACCTAGTGCAG — higher, 11200 fluorescence intensity (a.u.)
- AATTCGTCATTAGTAAATATTTACCGTAGCATCACATTGTCGGAGTCACCTAGTGCAG — higher, 11300 fluorescence intensity (a.u.)
- CACGTACTGATCTCTCCGTCCCGTTTGCTTCAACAACACACGGAGTCACCTAGTGCAG — higher, 11000 fluorescence intensity (a.u.)
- CTTTCATATATGTGTGTGCTATGATTTGTTTTCTTCCTCACGGAGTCACCTAGTGCAG — higher, 11900 fluorescence intensity (a.u.)
- ACACATATGGTTCTTGCAGTGTCTCATGTTGGATCTATCCCGGAGTCACCTAGTGCAG — higher, 9660 fluorescence intensity (a.u.)
- TAGTTTTTGTCATTGGGCGGGAAAGATATATAGTTGAACCCGGAGTCACCTAGTGCAG — higher, 9360 fluorescence intensity (a.u.)
- GCGATGCAAGCTGTGACACACTAACACTCTACTTGTACTACGGAGTCACCTAGTGCAG — lower, 8800 fluorescence intensity (a.u.)
- GTATTATGGGTGGAGGCGGGCGGCTGAGCTGTTCCTGGGCCGGAGTCACCTAGTGCAG — lower, 8880 fluorescence intensity (a.u.)
- ATCCGACTCCGACGCCACCACCACCAGTTCACCACCGCTGCGGAGTCACCTAGTGCAG — lower, 8420 fluorescence intensity (a.u.)
- ATCAGATCACCTCTCGAGCACGGCGCACCACCTCATCGGCCGGAGTCACCTAGTGCAG — higher, 10400 fluorescence intensity (a.u.)
- TCCGAGATACCGATATAACCGATATCCTTACCGTTTCCGACGGAGTCACCTAGTGCAG — lower, 8510 fluorescence intensity (a.u.)
- TTCCATGCTTTTCCGATGGGTCACGGCCCACTTCTCTTCGCGGAGTCACCTAGTGCAG — lower, 8930 fluorescence intensity (a.u.)
- CTTTATACTCCACTAGTATTTGTCAAATCTTTATTTTTCTCGGAGTCACCTAGTGCAG — higher, 12400 fluorescence intensity (a.u.)
- ATCCACCGCGCCGCCGTCCCGCATGCTCTGGCCGCTGCTCCGGAGTCACCTAGTGCAG — higher, 9630 fluorescence intensity (a.u.)
- CGGTTTGTTCACCCAATCTGGTTCGAGCTGACTCGTGTGTCGGAGTCACCTAGTGCAG — higher, 10100 fluorescence intensity (a.u.)
- GTTGGGCATTGAACCAAATAACGGCCCTTTGCTTTCAACACGGAGTCACCTAGTGCAG — lower, 8410 fluorescence intensity (a.u.)
- GACCTGAAGTTCTCGTTGTGTTGGCCTGCGTTTTTATCTGCGGAGTCACCTAGTGCAG — higher, 16800 fluorescence intensity (a.u.)
- TGTGATTTGCACCGCATACTTTCCCCGACAATAGATCATCCGGAGTCACCTAGTGCAG — lower, 8850 fluorescence intensity (a.u.)
- CACTTCTCCTTCTCCTGCGCCGCCTCATCTTATCTCGCCACGGAGTCACCTAGTGCAG — higher, 11400 fluorescence intensity (a.u.)
- CTCGTGCTCCTATTCCGCTTGTCCTTATCTCGGCGTCCGACGGAGTCACCTAGTGCAG — higher, 11700 fluorescence intensity (a.u.)
- TCCAACTCATTACCAAAGCGACCGACACAAATCCAAAAATCGGAGTCACCTAGTGCAG — lower, 8060 fluorescence intensity (a.u.)
- GACTAATCCCGCGTCACGAACTTGCTAATCAGTCAATAAACGGAGTCACCTAGTGCAG — lower, 8620 fluorescence intensity (a.u.)
- GAAGCTACCCGTCTCTGCTAACCACCAAGCTCGAGCAAATCGGAGTCACCTAGTGCAG — lower, 9090 fluorescence intensity (a.u.)
- ATGAATAATTGCATTACTTTTTGCTTGCTGTTTTCTGAATCGGAGTCACCTAGTGCAG — lower, 8320 fluorescence intensity (a.u.)
- TTTGCAGGTTTCGTTTGCATTTGCGGGGCGGGCATATATGCGGAGTCACCTAGTGCAG — higher, 21600 fluorescence intensity (a.u.)
- CCGCACTGGTCTTGCCCTTTTAAGCGCCGGCGCTTCCGTGCGGAGTCACCTAGTGCAG — lower, 8920 fluorescence intensity (a.u.)
